In PubChem BioAssay AID1347076 (National Center for Advancing Translational Sciences (NCATS), 2019):
“And” between values parts separate entries of the source, which are not always exact repeats. Equal values may be shown once. In all, about 400,000 compounds went through this assay and about 13,000 (3.2%) were called active. This list was built around the results that the source calls inconclusive (neither active nor inactive); the mix of calls is not that of the screen. Calls come from the whole dose curve; as a rule, active = well fitted cell-killing curve with a large enough effect; inconclusive = small, poorly fitted or top-dose-only effect, or effect the other way; inactive = flat fitted curve, though single readings scatter. A potency beside an inconclusive call is a rough fit, not a confirmed value.
% is set by controls: 0 for no effect and ±100 for the full control effect; potency is the fitted concentration of half-maximal effect.

Assay: qHTS assay for MDR1-selective chemotherapeutics: Primary screen using the drug-selected MDR subline cells KB-V1; note: nearly all actives have a fitted effect of over 60% in size
Conditions: KB-V1 MDR cells viability, CellTiter-Glo, 72 h; activity change, negative = cytotoxicity: at 46.1 µM (top of the series)
Outline: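 Potencies derive from concentration-effect curves fitted to normalized luminescence (CellTiter-Glo) of KB-V1 cells treated for 72 h at 37 degrees C in phenol-red-free DMEM containing 10% FBS.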
For `Cc1nc(Nc2cccc(O)c2)c2c3c(sc2n1)CCC3`, the Potency was inconclusive: 2.59 µM [cytotoxic, full curve]. With `COC(=O)[C@]12CCCCC=C1N(Cc1ccco1)C(=O)[C@H](CC(=O)N1CCN(C(=O)c3ccco3)CC1)C2` the Potency was inconclusive: 25.9 µM [rising, single point]. With `CN(C)c1cccc(-c2nnc(N3CCC(C(N)=O)CC3)s2)c1` the “activity change, negative = cytotoxicity” value was inactive: 2.7%. In the case of `CC(C)(C)n1ncc2c(=O)n(Cc3cccc(Cl)c3)cnc21`, the “activity change, negative = cytotoxicity” value is reported as inactive: -4.97%. In the case of `CC(C)(C)c1cc2nc(NCCc3ccc(S(N)(=O)=O)cc3)ccn2n1`, the “activity change, negative = cytotoxicity” value is reported as inactive: -4.37%. In the case of `O=C(Nc1ccccc1F)c1ccc([N+](=O)[O-])s1`, the Potency is reported as inconclusive: 20.6 µM [cytotoxic, single point]. With `CCC(C)(C)NC(=S)Nc1ccccc1C` the “activity change, negative = cytotoxicity” value was inactive: 7.18%. With `Clc1ccc(Nc2ccc(NCc3ccccc3)nn2)cc1` the Potency was active: 16.4 µM. With `CCn1cc([N+](=O)[O-])c(C(=O)N2N=C3/C(=C/c4cccs4)CCCC3C2c2cccs2)n1` (stereo unspecified) the Potency was inconclusive: 3.26 µM [cytotoxic, partial curve, poor fit]. With `Cc1cc2c(cc1C)-n1nnnc1C(N(C)Cc1ccccc1)C(=O)N2` (stereo unspecified) the Potency was inconclusive: 9.2 µM [cytotoxic, partial curve]. In the case of `Cc1cc(NC(=O)C23CCC(C)(C(=O)O2)C3(C)C)no1` (stereo unspecified), the “activity change, negative = cytotoxicity” value is reported as inactive: -10.8%. In the case of `CN1OC[C@@H]2CN(Cc3ccccc3)[C@H](c3cccc(-c4ccccc4)c3)C[C@@H]21`, the “activity change, negative = cytotoxicity” value is reported as inactive: 20.7%. With `Cc1coc2c1C(=O)C(=O)c1c-2ccc2c1CCCC2(C)C` the Potency was active: 7.31 µM. For `CCn1c(COc2ccc(C)cc2)nnc1SCC(=O)Nc1cc(OC)ccc1OC`, the Potency was inconclusive: 18.4 µM [cytotoxic, partial curve, poor fit]. With `CC(C)c1ccc(S(=O)(=O)N2CCN(C(=S)NCc3ccco3)CC2)cc1` the Potency was inconclusive: 20.6 µM [cytotoxic, single point]. For `CC(C)(C)c1cc(C(=O)NNc2ccc(OC(F)(F)F)cc2)n(Cc2ccccc2)n1`, the Potency was inconclusive: 29.1 µM [cytotoxic, single point]. In the case of `O=C(CSc1nnc(SCc2ccc(Cl)cc2)s1)N/N=C/c1c[nH]c2ccccc12`, the Potency is reported as inconclusive: 20.6 µM [cytotoxic, single point]. In the case of `COc1ccc(NC2CCCN(C(=O)CCc3cn[nH]c3)C2)cc1` (stereo unspecified), the “activity change, negative = cytotoxicity” value is reported as inactive: 16%. For `CCN(CC)S(=O)(=O)c1ccc(OC)c(NC(=O)OCc2ccccc2)c1`, the Potency was inconclusive: 5.8 µM [cytotoxic, partial curve]. In the case of `Cc1ccc(CC2(OCCN(C)C)CCC(C(C)(C)C)CC2)cc1` (stereo unspecified), the Potency is reported as active: 18.4 µM. In the case of `Brc1ccc(-c2nc3c4ccccc4ccn3c2Cc2ccccc2)cc1`, the “activity change, negative = cytotoxicity” value is reported as inactive: 0%. In the case of `O=C(CNS(=O)(=O)c1ccc(F)cc1)Nc1ccccc1`, the Potency is reported as inconclusive: 4.61 µM [rising, full curve, poor fit]. For `CCN1C(=O)N[C@@H](c2cccc(C(F)(F)F)c2)C(C(C)=O)=C1C`, the Potency was inconclusive: 29.1 µM [rising, single point]. In the case of `COc1cccc(NC(=O)N(C)C[C@H]2Oc3cc(C#Cc4ccncc4)ccc3S(=O)(=O)N([C@H](C)CO)C[C@H]2C)c1`, the Potency is reported as inconclusive: 13 µM [cytotoxic, partial curve]. In the case of `COc1ccc(CNC(=O)C[C@H]2C[C@H](C(=O)N3CCOCC3)[C@@]3(CCC4CCCC4)c4[nH]c5ccc(Cl)cc5c4CCN3C2=O)cc1OC`, the Potency is reported as inconclusive: 29.1 µM [cytotoxic, single point]. With `N#Cc1ccccc1Cn1c(=O)n(C2CCCC2)c(=O)c2ccccc21` the Potency was inconclusive: 9.2 µM [cytotoxic, partial curve]. In the case of `COc1ccc(/C=c2\[nH]c(=O)/c(=C/c3ccc(OC)c(OC)c3)[nH]c2=O)cc1OC`, the Potency is reported as inconclusive: 16.4 µM [rising, partial curve, poor fit]. With `Cc1ccc2cc(CN(C(=O)c3cccnc3)C(C)C)c(=O)[nH]c2c1` the Potency was inconclusive: 29.1 µM [cytotoxic, partial curve, poor fit]. With `O=C(Nc1ccc2c(c1)OCO2)C1CCN(S(=O)(=O)c2cccs2)CC1` the “activity change, negative = cytotoxicity” value was inactive: 11.4%. In the case of `N#Cc1c(NCCO)nc(NCc2ccccc2)c2c1CCN(Cc1ccccc1)C2`, the “activity change, negative = cytotoxicity” value is reported as inactive: -6.5%. In the case of `CC1Cc2ccccc2N1C(=O)COC(=O)/C=C/c1cccc(F)c1` (stereo unspecified), the Potency is reported as inconclusive: 29.1 µM [rising, single point]. With `C[C@@H]1CCCCCCCCC(=O)OCCN[C@H](C)CCCCCCCCC(=O)OCCN[C@H](C)CCCCCCCCC(=O)OCCN1` the “activity change, negative = cytotoxicity” value was inactive: 0%. In the case of `CCOc1ccc(NC(=O)c2ccc(NC(=O)C3CCCO3)cc2)cc1` (stereo unspecified), the activity change, negative = cytotoxicity is reported as inconclusive: -43.7%. With `Clc1ccc(-c2csc(=Nc3ccccc3)n2Cc2ccc3c(c2)OCO3)cc1` the “activity change, negative = cytotoxicity” value was inactive: -22.4%. For `O=C(Nc1cccc(-c2cn3ccccc3n2)c1)C1CC1`, the Potency was active: 18.4 µM. In the case of `CCCCCNc1nc2sc3c(c2c(=O)n1-c1cccc(Cl)c1)CCN(C)C3`, the “activity change, negative = cytotoxicity” value is reported as inactive: -29.3%. In the case of `CCCCNC(=O)c1ccc(NS(=O)(=O)c2ccccc2)cc1`, the Potency is reported as inconclusive: 20.6 µM [cytotoxic, partial curve, poor fit]. In the case of `CN(C(=O)COC(=O)CNC(=O)c1sc2ccccc2c1Cl)C1CCS(=O)(=O)C1` (stereo unspecified), the Potency is reported as inconclusive: 16.4 µM [rising, single point]. With `CCCCS(=O)(=O)C1CCS(=O)(=O)C1` (stereo unspecified) the Potency was inconclusive: 29.1 µM [rising, single point]. With `O=C1CCC(C(=O)N2CCOCC2)CN1Cc1ccc(Cl)cc1` (stereo unspecified) the activity change, negative = cytotoxicity was inconclusive: 34.6%. With `CCOC(=O)C1=C(O)c2ccccc2C(=O)/C1=C\c1ccc(C)cc1` the Potency was inconclusive: 20.6 µM [cytotoxic, partial curve]. For `CSCc1cc(N(C)C)nc(SCc2ccc(Cl)cc2Cl)n1`, the Potency was inconclusive: 16.4 µM [cytotoxic, partial curve]. For `Cc1cc(Cl)ccc1Oc1nc(-c2ccc(F)cc2)ccc1C#N`, the Potency was inconclusive: 10.3 µM [cytotoxic, partial curve]. With `Cc1ccc(CN2C(=O)N/C(=C\c3ccc(N4CCOCC4)cc3)C2=O)cc1` the “activity change, negative = cytotoxicity” value was inactive: 0.749%. For `CC(CC1C(C#N)=C(N)SC(N)=C1C#N)c1ccccc1` (stereo unspecified), the Potency was inconclusive: 29.1 µM [cytotoxic, single point]. For `Cc1cc(C)c2nc(NC(=O)c3ccc(S(=O)(=O)N4CCCC4)cc3)sc2c1`, the “activity change, negative = cytotoxicity” value was inactive: -8.04%. With `COc1ccc(-c2cc3nc(C)c(CCC(=O)N4CCN(c5ccccc5)CC4)c(C)n3n2)c(OC)c1` the Potency was inconclusive: 16.4 µM [rising, single point]. In the case of `Cc1c(CC(=O)NCc2ccccc2)c(=O)oc2c(C)c(O)ccc12`, the Potency is reported as inconclusive: 29.1 µM [cytotoxic, single point]. With `CCOC(=O)N1CCC(NC(=O)C(NS(=O)(=O)c2ccc3c(c2)CCN3C(C)=O)C(C)C)CC1` (stereo unspecified) the Potency was inconclusive: 29.1 µM [rising, single point]. For `COc1ccc(NC(=O)CN(C)C(=O)c2ccc(N3CCOCC3)c([N+](=O)[O-])c2)cc1`, the Potency was inconclusive: 20.6 µM [cytotoxic, partial curve, poor fit]. For `O=C(c1ccc([N+](=O)[O-])o1)N1CCOCC1`, the “activity change, negative = cytotoxicity” value was inactive: -13.6%. For `Cc1ccc(CC(=O)N2CCN(c3ccc([N+](=O)[O-])cc3)CC2)cc1`, the activity change, negative = cytotoxicity was inconclusive: -16%. In the case of `CCCCC(=O)NC(c1ccccc1)c1ccc2cccnc2c1O` (stereo unspecified), the Potency is reported as active: 13 µM. In the case of `COc1ccccc1NC(=O)c1nnn(CC(=O)Nc2cccc(SC)c2)c1N`, the “activity change, negative = cytotoxicity” value is reported as inactive: -21.7%. In the case of `COc1ccc([C@H]2CC(=O)C=C(c3cccc(Cl)c3)C2)cc1OC`, the Potency is reported as inconclusive: 23.1 µM [cytotoxic, single point]. In the case of `CC(=O)c1cccc(NC(=S)NC(=O)c2ccccc2Br)c1`, the Potency is reported as active: 20.6 µM. For `COc1ccc([C@H]2CC(=O)C=C(c3ccc(Cl)c(F)c3)C2)cc1`, the “activity change, negative = cytotoxicity” value was inactive: 0%. In the case of `O=C(NC1CC2CCCC(C1)N2S(=O)(=O)c1ccccc1)C1CCCCC1` (stereo unspecified), the Potency is reported as inconclusive: 18.4 µM [cytotoxic, partial curve]. In the case of `Cc1ccccc1CC(=O)Nc1ccc2c(c1)CCC2`, the Potency is reported as inconclusive: 18.4 µM [rising, single point]. For `CNCCCC12CCC(c3ccccc31)c1ccccc12`, the Potency was inconclusive: 14.6 µM [cytotoxic, single point] and inconclusive: 29.1 µM [cytotoxic, single point] and inconclusive: 16.4 µM [cytotoxic, single point]. With `CCn1cc(S(=O)(=O)c2ccc(OC)cc2)c(=O)c2cc(F)c(N3CCC(C)CC3)cc21` the Potency was inconclusive: 29.1 µM [cytotoxic, single point]. With `COc1ccc(C(C)(O)c2nc(-c3ccc(C)c(C)c3)cs2)cc1` (stereo unspecified) the “activity change, negative = cytotoxicity” value was inactive: 8.75%. In the case of `O=C(C1CCC(=O)N(C2CCCC2)C1)N1CCC(Oc2cccc(F)c2)CC1` (stereo unspecified), the Potency is reported as inconclusive: 7.31 µM [cytotoxic, partial curve, poor fit]. With `O=C(COc1ccccc1Br)NC1CCCC1` the Potency was active: 16.4 µM. With `COc1ccc(C(C)(C)C)cc1NC(=O)c1ccc2ncsc2c1` the “activity change, negative = cytotoxicity” value was inactive: -12.4%. With `CCOC(=O)Nc1oc2ccccc2c(=O)c1CN1CCOCC1` the “activity change, negative = cytotoxicity” value was inactive: -23%. With `CCN(CC)C(=O)C(Oc1ccc(S(=O)(=O)N2CCCC2)cc1[N+](=O)[O-])c1ccccc1` (stereo unspecified) the “activity change, negative = cytotoxicity” value was inactive: 0%. With `Cn1c(SCc2ccccc2)nnc1-c1cnccn1` the activity change, negative = cytotoxicity was inconclusive: -25.9%. In the case of `COC(=O)c1ccc2c(=O)n(Cc3ccc4c(c3)OCO4)c(SCC(=O)N3CCCC3)nc2c1`, the Potency is reported as inconclusive: 14.6 µM [rising, partial curve]. In the case of `O=C1C(Cl)=C(N2CCCCC2)C(=O)N1Cc1ccccc1`, the “activity change, negative = cytotoxicity” value is reported as inactive: 0%. In the case of `CCCCCCSc1ccc(-c2nc3ccc(C)cn3c2NCc2ccccc2)cc1OC`, the Potency is reported as inconclusive: 16.4 µM [cytotoxic, partial curve].
